Assay results taken from the supplement of paper PMC10849652.
This is one part of the list.

The chains behind the UniProt entries cited, without tags or fusion partners. Where a name states a change or a piece, a line headed by the entry shows the natural chain unless it says otherwise.
UniProt Q9Y3F4: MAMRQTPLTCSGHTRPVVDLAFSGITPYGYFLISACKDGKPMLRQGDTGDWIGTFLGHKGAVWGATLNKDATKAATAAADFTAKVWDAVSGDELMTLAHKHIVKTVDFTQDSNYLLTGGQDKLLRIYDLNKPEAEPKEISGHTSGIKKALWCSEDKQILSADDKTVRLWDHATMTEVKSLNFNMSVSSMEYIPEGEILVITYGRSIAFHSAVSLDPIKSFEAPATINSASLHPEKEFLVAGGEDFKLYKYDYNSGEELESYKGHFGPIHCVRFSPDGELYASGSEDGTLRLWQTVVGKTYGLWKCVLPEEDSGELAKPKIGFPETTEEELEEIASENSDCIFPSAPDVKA
UniProt Q8TCJ2: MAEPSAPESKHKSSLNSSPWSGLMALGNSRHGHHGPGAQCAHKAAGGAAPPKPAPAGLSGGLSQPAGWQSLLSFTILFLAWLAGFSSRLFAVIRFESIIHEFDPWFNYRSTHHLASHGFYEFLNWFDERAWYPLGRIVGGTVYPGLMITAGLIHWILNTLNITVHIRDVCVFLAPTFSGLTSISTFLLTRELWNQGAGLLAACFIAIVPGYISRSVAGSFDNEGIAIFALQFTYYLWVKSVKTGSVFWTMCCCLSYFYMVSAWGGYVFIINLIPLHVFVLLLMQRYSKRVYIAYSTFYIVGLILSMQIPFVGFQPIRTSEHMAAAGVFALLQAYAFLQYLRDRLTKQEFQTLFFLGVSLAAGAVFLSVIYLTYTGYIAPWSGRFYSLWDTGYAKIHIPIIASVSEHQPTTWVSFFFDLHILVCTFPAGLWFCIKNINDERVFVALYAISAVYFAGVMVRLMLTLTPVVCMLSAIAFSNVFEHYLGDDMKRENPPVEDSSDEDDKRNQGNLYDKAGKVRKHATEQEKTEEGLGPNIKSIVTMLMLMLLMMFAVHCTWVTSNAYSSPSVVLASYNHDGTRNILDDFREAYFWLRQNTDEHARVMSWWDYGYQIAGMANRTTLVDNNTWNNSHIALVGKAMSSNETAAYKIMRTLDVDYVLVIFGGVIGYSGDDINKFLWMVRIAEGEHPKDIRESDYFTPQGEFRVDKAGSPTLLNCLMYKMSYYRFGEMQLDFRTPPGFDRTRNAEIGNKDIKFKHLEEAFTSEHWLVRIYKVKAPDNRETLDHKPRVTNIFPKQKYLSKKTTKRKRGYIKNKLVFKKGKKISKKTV
UniProt Q96C24: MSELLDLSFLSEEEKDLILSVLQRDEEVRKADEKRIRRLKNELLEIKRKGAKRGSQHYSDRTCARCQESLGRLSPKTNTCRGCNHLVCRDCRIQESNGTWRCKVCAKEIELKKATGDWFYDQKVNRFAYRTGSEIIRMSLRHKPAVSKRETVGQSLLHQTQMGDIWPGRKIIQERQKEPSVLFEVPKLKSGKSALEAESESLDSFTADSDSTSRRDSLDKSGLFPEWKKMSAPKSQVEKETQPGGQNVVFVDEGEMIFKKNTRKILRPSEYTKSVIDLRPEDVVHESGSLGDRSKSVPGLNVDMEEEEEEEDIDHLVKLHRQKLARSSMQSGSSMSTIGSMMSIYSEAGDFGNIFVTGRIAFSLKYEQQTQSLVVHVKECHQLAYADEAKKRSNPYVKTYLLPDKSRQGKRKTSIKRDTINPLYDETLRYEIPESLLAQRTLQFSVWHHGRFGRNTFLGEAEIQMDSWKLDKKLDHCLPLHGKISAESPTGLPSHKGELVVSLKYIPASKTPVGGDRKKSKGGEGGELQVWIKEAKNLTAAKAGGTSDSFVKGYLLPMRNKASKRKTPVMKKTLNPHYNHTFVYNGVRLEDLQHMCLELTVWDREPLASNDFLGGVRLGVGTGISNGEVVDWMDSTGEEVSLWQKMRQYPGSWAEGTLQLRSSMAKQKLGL
UniProt Q9NZ72: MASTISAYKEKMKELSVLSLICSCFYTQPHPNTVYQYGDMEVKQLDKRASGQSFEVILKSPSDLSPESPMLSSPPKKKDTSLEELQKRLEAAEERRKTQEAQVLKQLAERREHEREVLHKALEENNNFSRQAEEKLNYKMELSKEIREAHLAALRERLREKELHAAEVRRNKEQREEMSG
UniProt Q96I99: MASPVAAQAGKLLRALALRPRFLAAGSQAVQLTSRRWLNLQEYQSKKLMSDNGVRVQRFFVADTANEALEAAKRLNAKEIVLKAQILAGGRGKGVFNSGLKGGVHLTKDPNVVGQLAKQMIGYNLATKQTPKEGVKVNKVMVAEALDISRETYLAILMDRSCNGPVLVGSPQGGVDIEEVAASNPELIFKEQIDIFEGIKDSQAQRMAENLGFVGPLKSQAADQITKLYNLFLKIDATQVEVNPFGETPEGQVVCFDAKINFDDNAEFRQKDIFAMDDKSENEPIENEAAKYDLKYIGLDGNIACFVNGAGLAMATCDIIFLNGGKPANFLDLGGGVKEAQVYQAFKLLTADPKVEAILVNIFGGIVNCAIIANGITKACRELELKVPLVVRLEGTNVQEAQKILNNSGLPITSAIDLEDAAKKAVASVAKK
UniProt P37802: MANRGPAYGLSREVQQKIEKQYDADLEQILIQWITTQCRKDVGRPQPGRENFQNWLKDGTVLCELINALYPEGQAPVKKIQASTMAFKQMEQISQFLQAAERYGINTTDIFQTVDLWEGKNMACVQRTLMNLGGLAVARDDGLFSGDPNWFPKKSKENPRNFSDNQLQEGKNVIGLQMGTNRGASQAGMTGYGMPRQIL
UniProt Q86Y82: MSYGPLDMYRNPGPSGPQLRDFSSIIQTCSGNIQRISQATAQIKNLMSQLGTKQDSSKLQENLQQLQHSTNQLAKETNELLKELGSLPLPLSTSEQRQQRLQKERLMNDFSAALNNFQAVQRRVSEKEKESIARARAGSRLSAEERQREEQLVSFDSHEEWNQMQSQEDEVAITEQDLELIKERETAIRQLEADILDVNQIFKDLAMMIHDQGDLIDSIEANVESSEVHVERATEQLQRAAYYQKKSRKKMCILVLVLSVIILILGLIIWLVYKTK
UniProt Q9H7L9: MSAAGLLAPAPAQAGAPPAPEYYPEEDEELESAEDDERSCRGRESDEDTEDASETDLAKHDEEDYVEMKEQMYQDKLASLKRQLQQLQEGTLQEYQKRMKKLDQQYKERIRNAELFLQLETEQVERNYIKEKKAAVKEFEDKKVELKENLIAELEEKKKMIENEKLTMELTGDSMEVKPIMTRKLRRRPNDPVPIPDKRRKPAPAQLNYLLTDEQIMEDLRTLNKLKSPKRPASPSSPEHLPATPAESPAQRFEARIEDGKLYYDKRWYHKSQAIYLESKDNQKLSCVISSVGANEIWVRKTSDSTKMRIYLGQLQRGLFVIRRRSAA

Columns and labels:
Experiment in all cases: log2 fold change, soluble protein after heating vs DMSO (PISA); higher = thermal stabilisation; K562 cells, 10 uM, 30 min; active = over 0.2 and 3.5 SD of the protein, either way, in both replicates (recomputed)
saracatinib = compound: CN1CCN(CCOc2cc(OC3CCOCC3)c3c(Nc4c(Cl)ccc5c4OCO5)ncnc3c2)CC1 [saracatinib]
How it was run: (§1)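 For each measurement, 10 μM compound was applied for 30 min to K562 cells at 2×10^6 cells/mL. Aliquots were heated for 3 min across 48°C-58°C, pooled, and extracted in PBS with 0.5% NP-40 at 4°C; the supernatant after 21,000xg for 90 min was soluble protein. This was quantified by TMTpro 16plex LC-MS/MS with channel sums equalised, and thermal stability was reported relative to control samples from duplicates, on a log2 fold-change scale.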

sotrastaurin = compound: CN1CCN(c2nc(C3=C(c4c[nH]c5ccccc45)C(=O)NC3=O)c3ccccc3n2)CC1 [sotrastaurin]
How it was run: as §1

alvocidib = compound: CN1CC[C@H](c2c(O)cc(O)c3c(=O)cc(-c4ccccc4Cl)oc23)[C@H](O)C1 [alvocidib]
How it was run: as §1

Tubastatin A = compound: CN1CCc2c(c3ccccc3n2Cc2ccc(C(=O)NO)cc2)C1 [Tubastatin A]
How it was run: as §1

[1] = compound: CNC(=O)C1=CC=CC=C1NC2=NC(=NC=C2Cl)NC3=C(C=C(C=C3)N4CCOCC4)OC
How it was run: as §1

defactinib = compound: CNC(=O)c1ccc(Nc2ncc(C(F)(F)F)c(NCc3nccnc3N(C)S(C)(=O)=O)n2)cc1 [defactinib]
How it was run: as §1

rucaparib = compound: CNCc1ccc(-c2[nH]c3cc(F)cc4c3c2CCNC4=O)cc1 [rucaparib]
How it was run: as §1

[2] = compound: CNc1nc(-c2ccc3c(N)n[nH]c3c2)cc(N2C[C@@H](C(=O)NC3CCCCC3)CC[C@H]2C)n1
How it was run: as §1

encorafenib = compound: COC(=O)N[C@@H](C)CNc1nccc(-c2cn(C(C)C)nc2-c2cc(Cl)cc(NS(C)(=O)=O)c2F)n1 [encorafenib]
How it was run: as §1

[3] = compound: COC(=O)[C@H](CCSC)NC(=O)C1=C(C=C(C=C1)NC[C@H](CS)N)C2=CC=CC=C2
How it was run: as §1

[4] = compound: COC1=CC=C(C=C1)CN2C=CC3=C2C=C(C=C3)C(=O)NO
How it was run: as §1

filanesib = compound: CON(C)C(=O)N1N=C(c2cc(F)ccc2F)S[C@@]1(CCCN)c1ccccc1 [filanesib]
How it was run: as §1

zotarolimus = compound: CO[C@H]1C[C@@H]2CC[C@@H](C)[C@@](O)(O2)C(=O)C(=O)N2CCCC[C@H]2C(=O)O[C@H]([C@H](C)C[C@@H]2CC[C@H](n3cnnn3)[C@H](OC)C2)CC(=O)[C@H](C)/C=C(\C)[C@@H](O)[C@@H](OC)C(=O)[C@H](C)C[C@H](C)/C=C/C=C/C=C/1C [zotarolimus]
How it was run: as §1

idasanutlin = compound: COc1cc(C(=O)O)ccc1NC(=O)[C@@H]1N[C@@H](CC(C)(C)C)[C@](C#N)(c2ccc(Cl)cc2F)[C@H]1c1cccc(Cl)c1F [idasanutlin]
How it was run: as §1

alisertib = compound: COc1cc(Nc2ncc3c(n2)-c2ccc(Cl)cc2C(c2c(F)cccc2OC)=NC3)ccc1C(=O)O [alisertib]
How it was run: as §1

[5] = compound: COc1cc2nc(-c3cc(F)ccc3O)nc(N[C@@H]3CNC[C@H]3C(C)(C)O)c2cc1OC
How it was run: as §1

gefitinib = compound: COc1cc2ncnc(Nc3ccc(F)c(Cl)c3)c2cc1OCCCN1CCOCC1 [gefitinib]
How it was run: as §1

[6] = compound: COc1cccc2cc(-c3nc([C@H]4CC[C@H](C(=O)O)CC4)n4ncnc(N)c34)[nH]c12
How it was run: as §1

lapatinib = compound: CS(=O)(=O)CCNCc1ccc(-c2ccc3ncnc(Nc4ccc(OCc5cccc(F)c5)c(Cl)c4)c3c2)o1 [lapatinib]
How it was run: as §1

pictilisib = compound: CS(=O)(=O)N1CCN(Cc2cc3nc(-c4cccc5[nH]ncc45)nc(N4CCOCC4)c3s2)CC1 [pictilisib]
How it was run: as §1

Measured: log2 fold change

STRAP isoform 2 (UniProt Q9Y3F4)
inactive: saracatinib 0.041 | sotrastaurin 0.022 | alvocidib 0.006 | Tubastatin A -0.027 | [1] -0.012 | defactinib 0.005 | rucaparib 0.022 | [2] 0.008 | encorafenib -0.005 | [3] -0.014 | [4] -0.031 | filanesib 0.011 | zotarolimus -0.024 | idasanutlin -0.019 | alisertib -0.039 | [5] 0.022 | gefitinib -0.01 | [6] 0.04 | lapatinib -0.016 | pictilisib 0.031

STT3B (UniProt Q8TCJ2)
inactive: saracatinib 0.031 | sotrastaurin -0.051 | alvocidib 0.077 | Tubastatin A 0.007 | [1] 0.003 | defactinib 0.057 | rucaparib 0.008 | [2] -0.013 | encorafenib 0.053 | [3] 0.011 | [4] -0.063 | filanesib 0.028 | zotarolimus -0.003 | idasanutlin 0.027 | alisertib -0.019 | [5] -0.022 | gefitinib -0.005 | [6] -0.01 | lapatinib 0.063 | pictilisib -0.058

SYTL4 (UniProt Q96C24)
inactive: saracatinib -0.01 | sotrastaurin -0.173 | alvocidib -0.022 | Tubastatin A 0.122 | [1] -0.03 | [2] -0.028 | filanesib 0.031 | zotarolimus -0.006 | idasanutlin 0.052 | alisertib -0.217 | [5] 0.049 | gefitinib -0.206 | [6] -0.107 | lapatinib -0.093

STMN3 (UniProt Q9NZ72)
inactive: saracatinib 0.083 | sotrastaurin 0.02 | alvocidib 0.097 | Tubastatin A 0.139 | [1] -0.063 | defactinib -0.021 | rucaparib -0.076 | [2] -0.143 | encorafenib -0.054 | [3] 0.004 | [4] 0.026 | filanesib 0.021 | zotarolimus -0.078 | idasanutlin 0.076 | alisertib 0.028 | [5] -0.104 | gefitinib 0.01 | [6] -0.015 | lapatinib 0 | pictilisib 0.108

SUCLG2 (UniProt Q96I99)
inactive: saracatinib 0.012 | sotrastaurin 0.01 | alvocidib -0.045 | Tubastatin A 0.011 | [1] -0.02 | defactinib -0.011 | rucaparib -0.009 | [2] -0.014 | encorafenib -0.002 | [3] -0.003 | [4] 0.05 | filanesib -0.101 | zotarolimus 0.019 | idasanutlin -0.088 | alisertib 0.007 | [5] 0.043 | gefitinib 0.011 | [6] 0.046 | lapatinib -0.036 | pictilisib -0.011

SUPT4H1 (UniProt P63272)
inactive: saracatinib -0.084 | sotrastaurin -0.034 | alvocidib -0.014 | Tubastatin A 0.049 | [1] -0.001 | defactinib -0.039 | rucaparib -0.01 | [2] -0.001 | encorafenib -0.052 | [3] -0.042 | [4] 0.113 | filanesib -0.028 | zotarolimus -0.015 | idasanutlin -0.182 | alisertib -0.145 | [5] 0.044 | gefitinib -0.017 | [6] -0.158 | lapatinib 0 | pictilisib 0.142

TAGLN2 isoform 2 (UniProt P37802)
inactive: saracatinib 0.043 | sotrastaurin -0.002 | alvocidib -0.08 | Tubastatin A 0.008 | [1] 0.049 | defactinib -0.035 | rucaparib 0.017 | [2] -0.002 | encorafenib -0.032 | [3] 0.001 | [4] 0.04 | filanesib -0.028 | zotarolimus 0.019 | idasanutlin 0.012 | alisertib -0.098 | [5] -0.004 | gefitinib 0.009 | [6] -0.024 | lapatinib 0.028 | pictilisib 0.003

STX12 (UniProt Q86Y82)
inactive: saracatinib 0.025 | sotrastaurin 0.039 | alvocidib 0.033 | Tubastatin A -0.03 | [1] -0.03 | defactinib -0.021 | rucaparib -0.014 | [2] -0.055 | encorafenib 0.004 | [3] 0.01 | [4] 0.013 | filanesib -0.033 | zotarolimus -0.064 | idasanutlin -0.022 | alisertib -0.034 | [5] 0.021 | gefitinib 0.035 | [6] 0.031 | lapatinib -0.001 | pictilisib 0.074

2 records picked at random from those above:
STX12 (UniProt Q86Y82)
inactive: saracatinib 0.025 | sotrastaurin 0.039 | alvocidib 0.033 | Tubastatin A -0.03 | [1] -0.03 | defactinib -0.021 | rucaparib -0.014 | [2] -0.055 | encorafenib 0.004 | [3] 0.01 | [4] 0.013 | filanesib -0.033 | zotarolimus -0.064 | idasanutlin -0.022 | alisertib -0.034 | [5] 0.021 | gefitinib 0.035 | [6] 0.031 | lapatinib -0.001 | pictilisib 0.074

STMN3 (UniProt Q9NZ72)
inactive: saracatinib 0.083 | sotrastaurin 0.02 | alvocidib 0.097 | Tubastatin A 0.139 | [1] -0.063 | defactinib -0.021 | rucaparib -0.076 | [2] -0.143 | encorafenib -0.054 | [3] 0.004 | [4] 0.026 | filanesib 0.021 | zotarolimus -0.078 | idasanutlin 0.076 | alisertib 0.028 | [5] -0.104 | gefitinib 0.01 | [6] -0.015 | lapatinib 0 | pictilisib 0.108

The listing continues.

SUDS3 (UniProt Q9H7L9)
inactive: saracatinib -0.107 | sotrastaurin 0.058 | alvocidib 0.029 | Tubastatin A 0.158 | [1] 0.05 | defactinib 0.075 | rucaparib -0.023 | [2] 0.106 | encorafenib -0.101 | [3] 0.151 | [4] 0.044 | filanesib 0.05 | zotarolimus 0.066 | idasanutlin -0.075 | alisertib 0.034 | gefitinib 0.066 | [6] 0.047
